Measurements reported in doi:10.1101/2022.02.05.479222.

How the values were obtained:
Experiment in all cases: two-hybrid
[1] = biological target: T1, Centagon 3 (Drosophila melanogaster) (UniProt Q9VLK2)
T1 sequence: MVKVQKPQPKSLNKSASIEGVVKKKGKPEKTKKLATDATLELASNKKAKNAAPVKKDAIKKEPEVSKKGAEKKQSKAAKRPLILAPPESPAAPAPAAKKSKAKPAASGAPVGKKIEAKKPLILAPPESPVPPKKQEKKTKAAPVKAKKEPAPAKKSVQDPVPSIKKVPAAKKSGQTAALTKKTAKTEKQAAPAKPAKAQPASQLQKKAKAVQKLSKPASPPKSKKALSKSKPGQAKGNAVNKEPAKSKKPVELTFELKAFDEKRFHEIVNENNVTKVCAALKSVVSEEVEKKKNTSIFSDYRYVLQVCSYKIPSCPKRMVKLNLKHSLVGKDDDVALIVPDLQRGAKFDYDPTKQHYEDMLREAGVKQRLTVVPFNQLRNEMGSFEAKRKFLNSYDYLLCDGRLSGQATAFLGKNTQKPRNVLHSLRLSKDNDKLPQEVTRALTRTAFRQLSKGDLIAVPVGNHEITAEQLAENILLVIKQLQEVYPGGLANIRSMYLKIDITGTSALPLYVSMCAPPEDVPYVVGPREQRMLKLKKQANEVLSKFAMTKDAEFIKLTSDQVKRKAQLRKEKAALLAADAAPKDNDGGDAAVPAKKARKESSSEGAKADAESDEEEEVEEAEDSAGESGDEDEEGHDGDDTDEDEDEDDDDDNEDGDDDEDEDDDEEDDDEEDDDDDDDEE

[2] = biological target: T2, Centagon 1 (Drosophila melanogaster) (UniProt Q9VI82)
T2 sequence: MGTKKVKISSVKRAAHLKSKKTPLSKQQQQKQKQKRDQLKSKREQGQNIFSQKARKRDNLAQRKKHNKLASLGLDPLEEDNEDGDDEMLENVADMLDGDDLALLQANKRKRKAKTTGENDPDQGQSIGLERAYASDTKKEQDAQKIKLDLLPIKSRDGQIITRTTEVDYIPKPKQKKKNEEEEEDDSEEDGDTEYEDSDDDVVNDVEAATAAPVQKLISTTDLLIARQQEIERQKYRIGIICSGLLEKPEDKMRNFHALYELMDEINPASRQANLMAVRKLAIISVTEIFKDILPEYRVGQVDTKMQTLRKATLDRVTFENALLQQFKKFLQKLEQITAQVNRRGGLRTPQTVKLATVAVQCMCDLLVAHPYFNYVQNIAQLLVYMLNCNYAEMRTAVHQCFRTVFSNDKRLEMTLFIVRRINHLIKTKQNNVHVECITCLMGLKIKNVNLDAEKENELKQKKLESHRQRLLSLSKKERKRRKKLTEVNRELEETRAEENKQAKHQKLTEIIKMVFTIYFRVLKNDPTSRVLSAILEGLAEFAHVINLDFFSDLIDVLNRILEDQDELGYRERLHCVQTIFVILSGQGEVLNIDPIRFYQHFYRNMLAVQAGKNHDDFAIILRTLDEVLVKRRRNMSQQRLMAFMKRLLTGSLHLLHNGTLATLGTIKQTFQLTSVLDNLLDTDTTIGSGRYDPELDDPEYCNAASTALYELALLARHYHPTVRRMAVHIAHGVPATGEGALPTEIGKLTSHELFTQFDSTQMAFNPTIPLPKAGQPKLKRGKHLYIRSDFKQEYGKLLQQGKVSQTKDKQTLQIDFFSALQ

[3] = biological target: Centagon 4 (Drosophila melanogaster) (UniProt Q7KVD5)

Measured: binding

Centagon 2 (from UniProt A1Z909)
binds: [1] | [2] | [3]

These are yes or no findings as the source states them, for the method shown. A result given as binding can be weak or reduced; the word gives no strength. For part of these data: Tags and fused reporters may be left off the sequences shown.
